The other results are listed elsewhere or left out.
What was measured:
Experiment in all cases: log2 fold change, soluble protein after heating vs DMSO (PISA); higher = thermal stabilisation; K562 cells, 10 uM, 30 min; active = over 0.2 and 3.5 SD of the protein, either way, in both replicates (recomputed)
[1] = compound: COC1=CC=C(C=C1)CN2C=CC3=C2C=C(C=C3)C(=O)NO
Outline: (§1)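 Soluble protein was defined as the supernatant after 21,000xg for 90 min. It came from K562 cells at 2×10^6 cells/mL given 10 μM compound for 30 min, heated in aliquots for 3 min across 48°C-58°C, pooled, and extracted in PBS with 0.5% NP-40 at 4°C, and was quantified by TMTpro 16plex LC-MS/MS with equalised channel sums. Thermal stability against control samples, from duplicates, is reported as log2 fold change.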

The chains behind the UniProt entries cited, without tags or fusion partners. Where a name states a change or a piece, a line headed by the entry shows the natural chain unless it says otherwise.
UniProt Q8TCB7: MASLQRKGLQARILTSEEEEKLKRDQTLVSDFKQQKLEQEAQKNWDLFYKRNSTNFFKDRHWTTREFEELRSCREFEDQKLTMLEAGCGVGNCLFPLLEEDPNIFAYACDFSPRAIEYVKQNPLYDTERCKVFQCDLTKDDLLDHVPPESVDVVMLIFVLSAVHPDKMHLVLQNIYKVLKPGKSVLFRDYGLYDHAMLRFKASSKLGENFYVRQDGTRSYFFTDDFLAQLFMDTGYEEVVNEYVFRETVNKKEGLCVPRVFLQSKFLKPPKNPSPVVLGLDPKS
UniProt Q9UBP6: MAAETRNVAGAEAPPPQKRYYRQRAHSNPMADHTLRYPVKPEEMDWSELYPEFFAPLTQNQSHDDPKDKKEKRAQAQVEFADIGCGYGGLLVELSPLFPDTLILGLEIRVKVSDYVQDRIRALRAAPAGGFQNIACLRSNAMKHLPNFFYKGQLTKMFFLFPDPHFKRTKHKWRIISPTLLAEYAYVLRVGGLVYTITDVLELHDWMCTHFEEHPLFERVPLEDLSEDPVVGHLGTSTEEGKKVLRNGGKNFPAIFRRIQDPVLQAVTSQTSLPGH
UniProt Q8IWA4: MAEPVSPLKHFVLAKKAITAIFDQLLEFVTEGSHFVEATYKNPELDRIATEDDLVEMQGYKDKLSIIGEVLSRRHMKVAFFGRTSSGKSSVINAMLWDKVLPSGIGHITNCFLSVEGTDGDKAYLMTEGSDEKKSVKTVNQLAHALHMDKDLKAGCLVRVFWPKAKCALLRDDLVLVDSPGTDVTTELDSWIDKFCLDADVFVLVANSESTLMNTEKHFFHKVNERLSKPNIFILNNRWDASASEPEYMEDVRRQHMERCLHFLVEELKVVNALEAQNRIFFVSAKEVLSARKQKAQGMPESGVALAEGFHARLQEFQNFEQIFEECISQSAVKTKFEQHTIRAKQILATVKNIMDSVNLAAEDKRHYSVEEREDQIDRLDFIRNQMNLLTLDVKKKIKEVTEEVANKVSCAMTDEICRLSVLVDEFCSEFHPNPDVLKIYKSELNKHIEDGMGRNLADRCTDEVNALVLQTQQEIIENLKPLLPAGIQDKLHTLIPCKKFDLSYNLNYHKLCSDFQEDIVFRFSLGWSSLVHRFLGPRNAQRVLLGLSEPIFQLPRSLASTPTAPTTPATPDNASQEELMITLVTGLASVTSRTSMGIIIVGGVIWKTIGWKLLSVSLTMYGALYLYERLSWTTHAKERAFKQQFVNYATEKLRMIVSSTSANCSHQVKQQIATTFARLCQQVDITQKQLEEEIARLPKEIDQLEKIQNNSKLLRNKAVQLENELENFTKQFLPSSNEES
UniProt Q9GZU1, whole entry, looked up: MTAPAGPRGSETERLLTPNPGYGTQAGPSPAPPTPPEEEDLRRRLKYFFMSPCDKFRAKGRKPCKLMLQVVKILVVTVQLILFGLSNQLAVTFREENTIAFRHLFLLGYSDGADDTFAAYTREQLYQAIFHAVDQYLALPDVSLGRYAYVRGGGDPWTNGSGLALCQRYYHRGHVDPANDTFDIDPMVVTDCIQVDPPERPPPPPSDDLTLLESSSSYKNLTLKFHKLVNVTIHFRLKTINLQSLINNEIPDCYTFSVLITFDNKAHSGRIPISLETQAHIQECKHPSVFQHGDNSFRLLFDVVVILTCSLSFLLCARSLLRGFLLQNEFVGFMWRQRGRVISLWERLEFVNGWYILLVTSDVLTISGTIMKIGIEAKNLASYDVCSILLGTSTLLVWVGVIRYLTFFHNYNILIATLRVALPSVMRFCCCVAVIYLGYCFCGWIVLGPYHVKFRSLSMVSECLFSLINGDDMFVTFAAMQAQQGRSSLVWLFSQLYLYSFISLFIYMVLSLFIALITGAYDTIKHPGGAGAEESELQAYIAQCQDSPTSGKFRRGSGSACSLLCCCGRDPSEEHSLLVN
UniProt Q7L2J0: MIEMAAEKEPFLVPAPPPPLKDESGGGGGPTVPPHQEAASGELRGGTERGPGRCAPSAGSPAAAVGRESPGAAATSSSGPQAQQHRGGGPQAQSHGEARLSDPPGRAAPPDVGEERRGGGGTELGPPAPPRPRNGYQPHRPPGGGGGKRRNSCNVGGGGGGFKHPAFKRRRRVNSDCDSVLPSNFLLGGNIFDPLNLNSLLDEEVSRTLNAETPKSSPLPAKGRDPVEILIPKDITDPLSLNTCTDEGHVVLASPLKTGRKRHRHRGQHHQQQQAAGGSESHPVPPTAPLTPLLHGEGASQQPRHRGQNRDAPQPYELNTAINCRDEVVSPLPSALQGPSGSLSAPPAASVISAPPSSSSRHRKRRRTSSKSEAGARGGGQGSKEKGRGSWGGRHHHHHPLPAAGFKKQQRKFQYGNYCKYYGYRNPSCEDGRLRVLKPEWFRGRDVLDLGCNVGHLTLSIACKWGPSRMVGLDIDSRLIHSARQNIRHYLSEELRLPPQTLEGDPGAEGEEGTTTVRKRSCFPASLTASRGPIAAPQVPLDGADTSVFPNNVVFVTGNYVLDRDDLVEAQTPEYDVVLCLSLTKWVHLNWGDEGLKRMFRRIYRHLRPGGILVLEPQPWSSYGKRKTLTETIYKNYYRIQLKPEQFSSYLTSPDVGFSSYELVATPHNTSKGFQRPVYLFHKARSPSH
UniProt O15021: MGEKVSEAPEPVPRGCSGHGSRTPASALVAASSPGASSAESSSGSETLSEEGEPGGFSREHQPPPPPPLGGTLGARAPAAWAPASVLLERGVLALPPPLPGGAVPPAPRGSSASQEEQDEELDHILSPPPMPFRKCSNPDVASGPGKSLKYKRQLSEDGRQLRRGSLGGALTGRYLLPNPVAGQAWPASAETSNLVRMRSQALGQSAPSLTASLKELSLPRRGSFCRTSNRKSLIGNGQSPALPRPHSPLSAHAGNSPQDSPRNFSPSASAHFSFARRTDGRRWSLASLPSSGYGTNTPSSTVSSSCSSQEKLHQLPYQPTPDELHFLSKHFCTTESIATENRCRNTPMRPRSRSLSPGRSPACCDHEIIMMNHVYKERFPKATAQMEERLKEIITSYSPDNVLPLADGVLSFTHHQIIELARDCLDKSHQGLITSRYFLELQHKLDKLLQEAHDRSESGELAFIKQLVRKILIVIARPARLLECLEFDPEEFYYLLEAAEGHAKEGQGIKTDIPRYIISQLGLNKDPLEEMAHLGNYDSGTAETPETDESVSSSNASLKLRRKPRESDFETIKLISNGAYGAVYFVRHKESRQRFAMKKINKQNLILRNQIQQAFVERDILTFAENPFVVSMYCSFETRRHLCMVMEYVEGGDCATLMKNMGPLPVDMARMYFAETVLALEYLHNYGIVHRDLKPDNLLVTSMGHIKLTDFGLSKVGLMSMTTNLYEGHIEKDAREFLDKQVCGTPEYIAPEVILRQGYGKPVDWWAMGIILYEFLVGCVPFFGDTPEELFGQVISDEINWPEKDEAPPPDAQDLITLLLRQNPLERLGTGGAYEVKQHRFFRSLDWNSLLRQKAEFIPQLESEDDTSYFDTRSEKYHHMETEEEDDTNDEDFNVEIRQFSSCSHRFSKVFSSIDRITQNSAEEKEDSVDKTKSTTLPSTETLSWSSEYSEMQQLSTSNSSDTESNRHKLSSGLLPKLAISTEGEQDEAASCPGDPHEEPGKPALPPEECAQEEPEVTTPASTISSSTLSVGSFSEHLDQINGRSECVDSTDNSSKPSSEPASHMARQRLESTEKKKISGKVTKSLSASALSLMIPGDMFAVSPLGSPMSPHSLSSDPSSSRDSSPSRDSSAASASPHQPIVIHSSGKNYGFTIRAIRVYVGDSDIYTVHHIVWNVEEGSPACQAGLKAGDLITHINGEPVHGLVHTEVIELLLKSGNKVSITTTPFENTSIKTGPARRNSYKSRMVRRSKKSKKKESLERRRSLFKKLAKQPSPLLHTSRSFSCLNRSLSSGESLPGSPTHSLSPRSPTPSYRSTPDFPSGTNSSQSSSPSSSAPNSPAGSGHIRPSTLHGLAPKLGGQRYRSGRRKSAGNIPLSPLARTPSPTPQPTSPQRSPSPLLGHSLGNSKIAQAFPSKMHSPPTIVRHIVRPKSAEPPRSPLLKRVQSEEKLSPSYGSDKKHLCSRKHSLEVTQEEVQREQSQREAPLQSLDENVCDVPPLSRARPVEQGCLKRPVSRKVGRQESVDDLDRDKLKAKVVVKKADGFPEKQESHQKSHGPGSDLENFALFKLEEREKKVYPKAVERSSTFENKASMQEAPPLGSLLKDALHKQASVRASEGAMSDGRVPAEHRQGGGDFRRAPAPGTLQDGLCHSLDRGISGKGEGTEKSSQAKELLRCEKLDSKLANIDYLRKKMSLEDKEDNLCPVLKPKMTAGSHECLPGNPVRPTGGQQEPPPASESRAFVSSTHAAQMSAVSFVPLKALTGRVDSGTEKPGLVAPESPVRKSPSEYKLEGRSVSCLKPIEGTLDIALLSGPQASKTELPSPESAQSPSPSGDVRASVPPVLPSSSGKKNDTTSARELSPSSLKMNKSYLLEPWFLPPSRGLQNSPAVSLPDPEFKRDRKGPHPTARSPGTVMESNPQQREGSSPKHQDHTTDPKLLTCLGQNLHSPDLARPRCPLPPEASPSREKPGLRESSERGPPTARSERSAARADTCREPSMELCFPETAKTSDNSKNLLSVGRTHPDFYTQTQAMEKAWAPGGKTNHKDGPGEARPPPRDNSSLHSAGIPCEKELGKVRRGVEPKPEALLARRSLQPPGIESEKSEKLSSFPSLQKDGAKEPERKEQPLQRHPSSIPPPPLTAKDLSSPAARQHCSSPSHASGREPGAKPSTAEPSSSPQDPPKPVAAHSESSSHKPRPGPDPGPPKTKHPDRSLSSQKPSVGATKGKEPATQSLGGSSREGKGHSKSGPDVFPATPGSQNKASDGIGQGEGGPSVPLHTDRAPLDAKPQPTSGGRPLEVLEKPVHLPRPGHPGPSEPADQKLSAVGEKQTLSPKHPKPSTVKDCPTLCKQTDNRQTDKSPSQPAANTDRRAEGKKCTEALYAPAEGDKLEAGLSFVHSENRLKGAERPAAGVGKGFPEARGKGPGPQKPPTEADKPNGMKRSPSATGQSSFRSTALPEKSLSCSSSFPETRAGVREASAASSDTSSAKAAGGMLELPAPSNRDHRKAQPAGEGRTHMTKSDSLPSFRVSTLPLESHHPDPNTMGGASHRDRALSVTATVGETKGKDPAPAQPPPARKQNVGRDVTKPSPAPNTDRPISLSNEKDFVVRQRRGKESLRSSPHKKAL
UniProt Q96G25: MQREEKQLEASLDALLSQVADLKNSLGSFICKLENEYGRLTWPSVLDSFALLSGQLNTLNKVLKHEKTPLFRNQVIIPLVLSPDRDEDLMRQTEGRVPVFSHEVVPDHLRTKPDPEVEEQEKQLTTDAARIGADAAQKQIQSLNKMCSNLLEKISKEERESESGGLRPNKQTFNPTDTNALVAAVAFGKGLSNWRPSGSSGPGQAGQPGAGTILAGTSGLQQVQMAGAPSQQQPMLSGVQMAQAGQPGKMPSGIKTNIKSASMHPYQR
UniProt Q6UB28: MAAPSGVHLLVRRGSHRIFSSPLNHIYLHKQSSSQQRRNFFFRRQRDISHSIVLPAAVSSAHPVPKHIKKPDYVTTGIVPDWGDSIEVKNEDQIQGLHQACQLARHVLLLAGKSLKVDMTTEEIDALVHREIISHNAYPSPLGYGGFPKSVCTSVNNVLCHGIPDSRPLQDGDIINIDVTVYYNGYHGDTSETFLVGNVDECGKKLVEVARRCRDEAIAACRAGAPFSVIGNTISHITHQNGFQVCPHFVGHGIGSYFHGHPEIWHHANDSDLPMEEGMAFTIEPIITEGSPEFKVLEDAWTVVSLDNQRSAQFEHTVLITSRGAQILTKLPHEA
UniProt P23368: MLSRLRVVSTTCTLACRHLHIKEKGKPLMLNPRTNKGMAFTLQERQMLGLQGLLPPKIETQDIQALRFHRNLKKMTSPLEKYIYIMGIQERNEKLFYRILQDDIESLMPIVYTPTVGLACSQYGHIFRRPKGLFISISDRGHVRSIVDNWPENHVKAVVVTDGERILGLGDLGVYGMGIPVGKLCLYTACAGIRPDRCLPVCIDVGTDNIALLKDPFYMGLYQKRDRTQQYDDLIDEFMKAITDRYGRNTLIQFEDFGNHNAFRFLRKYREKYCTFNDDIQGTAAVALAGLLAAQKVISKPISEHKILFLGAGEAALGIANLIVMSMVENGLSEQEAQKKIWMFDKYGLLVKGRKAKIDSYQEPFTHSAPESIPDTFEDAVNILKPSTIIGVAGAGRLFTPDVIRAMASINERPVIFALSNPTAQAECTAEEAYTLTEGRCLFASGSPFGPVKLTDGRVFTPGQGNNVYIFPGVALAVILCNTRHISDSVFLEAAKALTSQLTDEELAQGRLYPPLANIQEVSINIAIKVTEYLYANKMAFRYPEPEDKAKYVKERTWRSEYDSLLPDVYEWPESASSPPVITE

filanesib = compound: CON(C)C(=O)N1N=C(c2cc(F)ccc2F)S[C@@]1(CCCN)c1ccccc1 [filanesib]
Outline: as §1

zotarolimus = compound: CO[C@H]1C[C@@H]2CC[C@@H](C)[C@@](O)(O2)C(=O)C(=O)N2CCCC[C@H]2C(=O)O[C@H]([C@H](C)C[C@@H]2CC[C@H](n3cnnn3)[C@H](OC)C2)CC(=O)[C@H](C)/C=C(\C)[C@@H](O)[C@@H](OC)C(=O)[C@H](C)C[C@H](C)/C=C/C=C/C=C/1C [zotarolimus]
Outline: as §1

idasanutlin = compound: COc1cc(C(=O)O)ccc1NC(=O)[C@@H]1N[C@@H](CC(C)(C)C)[C@](C#N)(c2ccc(Cl)cc2F)[C@H]1c1cccc(Cl)c1F [idasanutlin]
Outline: as §1

alisertib = compound: COc1cc(Nc2ncc3c(n2)-c2ccc(Cl)cc2C(c2c(F)cccc2OC)=NC3)ccc1C(=O)O [alisertib]
Outline: as §1

[2] = compound: COc1cc2nc(-c3cc(F)ccc3O)nc(N[C@@H]3CNC[C@H]3C(C)(C)O)c2cc1OC
Outline: as §1

gefitinib = compound: COc1cc2ncnc(Nc3ccc(F)c(Cl)c3)c2cc1OCCCN1CCOCC1 [gefitinib]
Outline: as §1

[3] = compound: COc1cccc2cc(-c3nc([C@H]4CC[C@H](C(=O)O)CC4)n4ncnc(N)c34)[nH]c12
Outline: as §1

lapatinib = compound: CS(=O)(=O)CCNCc1ccc(-c2ccc3ncnc(Nc4ccc(OCc5cccc(F)c5)c(Cl)c4)c3c2)o1 [lapatinib]
Outline: as §1

pictilisib = compound: CS(=O)(=O)N1CCN(Cc2cc3nc(-c4cccc5[nH]ncc45)nc(N4CCOCC4)c3s2)CC1 [pictilisib]
Outline: as §1

[4] = compound: CS(=O)(=O)c1ccc(-c2cnc(N)c(C(=O)Nc3ccccc3)n2)cc1
Outline: as §1

crizotinib = compound: C[C@@H](Oc1cc(-c2cnn(C3CCNCC3)c2)cnc1N)c1c(Cl)ccc(F)c1Cl [crizotinib]
Outline: as §1

[5] = compound: C[C@@H]1COCCN1C2=NC(=NC(=C2)C3(CC3)S(=O)(=O)C)C4=C5C=CNC5=CC=C4
Outline: as §1

[6] = compound: C[C@H](C1=CC=C(C=C1)C(=O)NC2=C3C=CNC3=NC=C2)N
Outline: as §1

gandotinib = compound: Cc1cc(Nc2cc(CN3CCOCC3)c3nc(C)c(Cc4ccc(Cl)cc4F)n3n2)n[nH]1 [gandotinib]
Outline: as §1

[7] = compound: Cc1cc(SCc2sc(-c3ccc(C(F)(F)F)cc3)nc2C)ccc1OCC(=O)O
Outline: as §1

doramapimod = compound: Cc1ccc(-n2nc(C(C)(C)C)cc2NC(=O)Nc2ccc(OCCN3CCOCC3)c3ccccc23)cc1 [doramapimod]
Outline: as §1

ispinesib = compound: Cc1ccc(C(=O)N(CCCN)[C@@H](c2nc3cc(Cl)ccc3c(=O)n2Cc2ccccc2)C(C)C)cc1 [ispinesib]
Outline: as §1

duvelisib = compound: C[C@H](Nc1ncnc2nc[nH]c12)c1cc2cccc(Cl)c2c(=O)n1-c1ccccc1 [duvelisib]
Outline: as §1

tozasertib = compound: Cc1cc(Nc2cc(N3CCN(C)CC3)nc(Sc3ccc(NC(=O)C4CC4)cc3)n2)n[nH]1 [tozasertib]
Outline: as §1

Row | Target | log2 fold change [1] | log2 fold change (filanesib) | log2 fold change (zotarolimus) | log2 fold change (idasanutlin) | log2 fold change (alisertib) | log2 fold change [2] | log2 fold change (gefitinib) | log2 fold change [3] | log2 fold change (lapatinib) | log2 fold change (pictilisib) | log2 fold change [4] | log2 fold change (crizotinib) | log2 fold change [5] | log2 fold change [6] | log2 fold change (gandotinib) | log2 fold change [7] | log2 fold change (doramapimod) | log2 fold change (ispinesib) | log2 fold change (duvelisib) | log2 fold change (tozasertib)
1 | MDN1 (UniProt Q9NU22) | inactive: 0.066 | inactive: -0.095 | inactive: -0.002 | inactive: -0.058 | inactive: -0.056 | inactive: -0.031 | inactive: -0.003 | inactive: 0.022 | inactive: -0.005 | inactive: 0.001 | inactive: -0.072 | inactive: -0.135 | inactive: 0.094 | inactive: 0.002 | inactive: -0.156 | inactive: 0.063 | inactive: -0.005 | inactive: -0.117 |  | 
2 | METTL6 (UniProt Q8TCB7) | inactive: -0.319 | inactive: -0.171 | inactive: -0.026 | inactive: 0.007 | inactive: -0.092 | inactive: 0.175 |  | inactive: 0.315 | inactive: -0.091 | inactive: 0.34 | inactive: 0.084 | inactive: -0.021 | inactive: 0.191 | inactive: 0.001 | inactive: 0.024 | inactive: -0.071 | inactive: -0.136 |  | inactive: 0.064 | inactive: -0.033
3 | METTL1 (UniProt Q9UBP6) | inactive: -0.139 | inactive: -0.066 | inactive: -0.001 | inactive: -0.03 | inactive: -0.021 | inactive: 0.041 | inactive: 0.026 | inactive: 0.026 | inactive: 0.017 | inactive: 0.017 | inactive: 0.04 |  | inactive: 0.049 | inactive: -0.042 | inactive: -0.013 | inactive: -0.054 | inactive: -0.011 | inactive: 0.108 | inactive: -0.008 | inactive: -0.034
4 | MFN1 (UniProt Q8IWA4) | inactive: 0.042 | inactive: -0.182 | inactive: 0.06 | inactive: 0.034 | inactive: 0.262 | active: -0.523 | inactive: 0.017 | inactive: 0.03 | inactive: 0.002 | inactive: 0.024 | inactive: 0.031 | inactive: -0.026 | inactive: 0.027 | inactive: -0.063 | inactive: 0.025 | inactive: 0.039 | inactive: 0.02 | inactive: -0.207 |  | 
5 | MCOLN1 (UniProt Q9GZU1) | inactive: 0.137 | inactive: -0.092 |  |  | inactive: -0.028 | inactive: -0.041 | inactive: -0.095 | inactive: 0.068 | inactive: 0.035 | inactive: 0.137 | inactive: -0.006 | inactive: -0.205 | inactive: 0.192 |  | inactive: -0.064 | inactive: -0.207 | inactive: 0.157 | inactive: -0.959 | inactive: 0.122 | 
6 | MEPCE (UniProt Q7L2J0) | active: -0.706 | inactive: 0.042 | inactive: 0.042 | inactive: 0.036 | inactive: -0.093 | inactive: -0.167 | inactive: 0.078 | inactive: 0.013 | inactive: 0.102 | inactive: -0.013 | inactive: -0.006 | inactive: 0.111 | inactive: 0.03 | inactive: -0.005 | inactive: -0.051 | inactive: 0.04 | inactive: -0.22 | inactive: -0.065 |  | 
7 | MAST4 (UniProt O15021) | inactive: -0.023 | inactive: -0.114 | inactive: 0.035 | inactive: -0.103 | inactive: -0.073 | inactive: -0.283 | inactive: -0.031 | inactive: 0.019 | inactive: 0.046 | inactive: -0.036 | inactive: -0.041 | inactive: -0.188 | inactive: 0.064 | inactive: -0.114 | inactive: -0.301 | inactive: 0.053 | inactive: -0.088 | inactive: 0.007 |  | 
8 | MED8 isoform 2 (UniProt Q96G25) | inactive: -0.11 | inactive: 0.033 | inactive: -0.004 | inactive: 0.095 | inactive: -0.088 | inactive: -0.154 | inactive: -0.034 | inactive: -0.041 | inactive: 0.058 |  | inactive: 0.021 | inactive: 0.037 | inactive: -0.049 | inactive: -0.077 |  | inactive: -0.079 | inactive: -0.031 | inactive: 0.012 |  | 
9 | METAP1D (UniProt Q6UB28) | active: 0.342 | inactive: -0.097 | inactive: 0.054 | inactive: 0.079 | inactive: -0.085 | inactive: 0.021 | inactive: -0.029 | inactive: -0.035 | inactive: -0.062 |  | inactive: -0.009 | inactive: -0.041 | inactive: 0.147 | inactive: -0.037 |  | inactive: 0.01 | inactive: -0.091 | inactive: -0.032 |  | 
10 | ME2 (UniProt P23368) | inactive: -0.037 | inactive: 0.012 | inactive: -0.052 | inactive: 0.196 | inactive: 0.002 | inactive: 0.076 | inactive: 0.023 | inactive: -0.046 | inactive: -0.003 | inactive: 0.056 | inactive: -0.027 | active: 0.282 | inactive: -0.048 | inactive: 0.009 | inactive: -0.016 | inactive: -0.002 | inactive: -0.016 | active: 0.334 |  | 

Some values from the list:
In log2 fold change (doramapimod), METTL6 (UniProt Q8TCB7) is entered as inactive: -0.136
In log2 fold change (ispinesib), MAST4 (UniProt O15021) is entered as inactive: 0.007

— the supplement of paper PMC10849652
